Patent US20250161404A1, “METHODS AND COMPOSITIONS FOR THE CONTROL OF INFLAMMATION IN SKIN DISEASE” (VANDERBILT UNIVERSITY, priority 2023, published 2025)
Entries after “also recorded” stand apart in the source; their conditions may differ. Like-named read-outs stand apart in the source and are kept apart here. Not every detail of the peptide structures is certain; ends, links or a residue may be inferred. Where a SMILES comes first, the peptide text is derived from it. Bridges are numbered along the chain shown (N, C = ends).

Experiments:
[1] = tested on: MC903-induced Atopic Dermatitis (AD)-like phenotype; type: in vivo, C57BL/6 female mice
[2] = tested on: genes encoding the mediators of allergic skin inflammation; test: Gene expression in ear skin of MC903-challenged mice by qRT PCR; type: in vivo, C57BL/6 female mice
[3] = tested on: cellular infiltration and Ki67-positive cells in MC903-challenged pinna; test: Immunohistochemistry of pinna samples of MC903-challenged mice, semiquantitative IHC scoring; type: in vivo, C57BL/6 female mice
[4] = tested on: PMA-induced ear inflammation; test: PMA-induced skin (ear) inflammation; type: in vivo, C57BL/6 female mice; conditions: for PMA-induced ear inflammation (ear thickness, thickening of the pinna): topical cSN50.1 16.7 nmoles each side, 30 min before and 3, 6, 8 h after PMA
NF-κB RelA = test: Nuclear translocation of SRTFs in cultured human keratinocytes, quantitative immunoblotting; type: cell-based; conditions: cSN50.1 10 μM 30 min before TNF-α/IL-17, 48 hours
[5] = tested on: pSTAT3 (phosphorylated STAT3); test: as above; type: cell-based; conditions: cSN50.1 10 μM 30 min before TNF-α/IL-17, 48 hours
[6] = tested on: genes encoding the mediators of inflammation in human primary keratinocytes; test: Gene expression in TNF-α/IL-17-stimulated human primary keratinocytes by qRT PCR; type: cell-based; conditions: cSN50.1 10 μM, 48 hours post TNF-α/IL-17
[7] = tested on: human primary keratinocytes stimulated with TNF-α/IL-17; test: Cytokine/chemokine production in the medium of human keratinocytes stimulated with TNF-α/IL-17 (ELISA, CBA); type: cell-based; conditions: cSN50.1 10 μM, medium 24 and 48 hours after TNF-α/IL-17
[8] = tested on: human primary keratinocytes stimulated with PMA; test: Cytokine/chemokine production in the medium of human keratinocytes stimulated with PMA (ELISA, CBA); type: cell-based; conditions: cSN50.1 30 μM, medium 6 and 24 hours after PMA 50 nM
Mrgpra2a = conditions: experimental sepsis study; cited from earlier work
[9] = tested on: NF-κB, cFos/cJun, NFAT, and STAT1; conditions: human T cells; cited from earlier work
[10] = in vivo; cited from earlier work
[11] = ear skin, day 29, MC903-challenged
[12] = ear skin, day 29, MC903-challenged, listed as NTCI

CSCC[C@@H]1NC(=O)[C@H](CC(C)C)NC(=O)[C@H](CCCCN)NC(=O)[C@H](CCC(N)=O)NC(=O)[C@H](CCCNC(=N)N)NC(=O)[C@H](CCCCN)NC(=O)[C@H](CCCNC(=N)N)NC(=O)[C@H](CCC(N)=O)NC(=O)[C@H](C(C)C)NC(=O)[C@@H](NC(=O)[C@@H]2CCCN2C(=O)[C@H](C)NC(=O)[C@H](CC(C)C)NC(=O)[C@H](CC(C)C)NC(=O)[C@H](C)NC(=O)[C@H](CC(C)C)NC(=O)[C@H](CC(C)C)NC(=O)[C@@H](NC(=O)[C@H](C)NC(=O)[C@@H]2CCCN2C(=O)[C@H](CC(C)C)NC(=O)[C@H](CC(C)C)NC(=O)[C@H](C)NC(=O)[C@@H](NC(=O)[C@H](C)NC(=O)[C@H](C)N)C(C)C)C(C)C)CSSC[C@@H](C(=O)O)NC(=O)[C@@H]2CCCN2C1=O [cSN50.1] (H-AAVALLPAVLLALLAPCVQRKRQKLMPC-OH; disulfide 17-28; N-terminus and C-terminus assumed)
skin lesions in the ear ([1]; after 9 days of treatment): healed
redness and scaling ([1]; topical cSN50.1 66 nmoles B.I.D. for 9 days): significantly reduced
number of genes encoding the mediators of allergic skin inflammation suppressed ([2]; calcipotriol-challenged skin): 15 genes
expression of gene encoding IL-1β [2, 11]: suppression
expression of gene encoding IL-4 [2, 11]: control
expression of gene encoding IL-4Rα [2, 11]: control
expression of gene encoding IL-6 [2, 11]: suppression
expression of gene encoding IL-23α [2, 11]: silencing
expression of gene encoding VEGF A [2, 11]: suppressed
expression of gene encoding IL-13 [2, 12]: control; also recorded: suppressed
expression of gene encoding TSLP [2, 12]: suppresses; also recorded: Striking suppression
skin infiltration by T cells (CD4+) [3]: reduced
skin infiltration by eosinophils (MBP) [3]: reduced
skin infiltration by macrophages (Iba-1) [3]: reduced
skin infiltration by T cells (CD4+) ([3]; listed as NTCI): suppressed
skin infiltration by eosinophils (MBP) ([3]; listed as NTCI): suppressed
skin infiltration by macrophages (Iba-1) ([3]; listed as NTCI): suppressed
redness and swelling (ear images, H & E) ([4]; biopsies 8 h after PMA challenge): reduced
PMA-induced ear inflammation (ear thickness, thickening of the pinna) [4]: reduces
PMA-induced ear inflammation (ear thickness, thickening of the pinna) ([4]; listed as NTCI): suppressed
nuclear content / nuclear translocation of NF-κB RelA (NF-κB RelA): reducing
nuclear content / nuclear translocation of NF-κB RelA (NF-κB RelA; listed as NTCI): inhibited
nuclear content / nuclear translocation of STAT3 (pSTAT3) [5]: inhibited; also recorded: reducing
nuclear content / nuclear translocation of STAT3 (pSTAT3) ([5]; listed as NTCI): inhibited
expression of gene encoding GM-CSF (CSF2) [6]: striking suppression
expression of gene encoding IL-1β [6]: striking suppression
expression of gene encoding IL-6 [6]: striking suppression
expression of gene encoding IL-8 (CXCL8) [6]: striking suppression
expression of gene encoding TNFα [6]: striking suppression
expression of gene encoding TSLP [6]: inhibits
expression of gene encoding TSLP ([6]; listed as NTCI): striking suppression
production and release of GM-CSF protein [7]: Suppression
production and release of IL-8 protein [7]: Suppression
production and release of TSLP protein [7]: Suppression
production and release of GM-CSF protein ([7]; listed as NTCI): suppressed
production and release of IL-8 protein ([7]; listed as NTCI): suppressed
production and release of TSLP protein ([7]; listed as NTCI): suppressed
production of GM-CSF [8]: Suppression
production of IL-6 [8]: Suppression
production of IL-8 [8]: Suppression
production of TNF-α [8]: Suppression
production of TSLP [8]: Suppression
production of GM-CSF ([8]; listed as NTCI): suppressed
production of IL-6 ([8]; listed as NTCI): suppressed
production of IL-8 ([8]; listed as NTCI): suppressed
production of TNF-α ([8]; listed as NTCI): suppressed
production of TSLP ([8]; listed as NTCI): suppressed
expression of Mrgpra2a, mouse homolog of MRGPRX2 (Mrgpra2a): suppresses
PMA-induced nuclear transport of SRTFs [9]: suppressing
blood cholesterol [10]: reduces
blood glucose [10]: reduces
blood triglycerides [10]: reduces
